Our source for the log2 fold change values is the supplement of paper PMC10849652.

Sequences of proteins named here, by UniProt entry; tags and fusion partners are left off. A change or cut given only in a name is not applied to a line headed by its entry.
UniProt P24864, whole entry, looked up: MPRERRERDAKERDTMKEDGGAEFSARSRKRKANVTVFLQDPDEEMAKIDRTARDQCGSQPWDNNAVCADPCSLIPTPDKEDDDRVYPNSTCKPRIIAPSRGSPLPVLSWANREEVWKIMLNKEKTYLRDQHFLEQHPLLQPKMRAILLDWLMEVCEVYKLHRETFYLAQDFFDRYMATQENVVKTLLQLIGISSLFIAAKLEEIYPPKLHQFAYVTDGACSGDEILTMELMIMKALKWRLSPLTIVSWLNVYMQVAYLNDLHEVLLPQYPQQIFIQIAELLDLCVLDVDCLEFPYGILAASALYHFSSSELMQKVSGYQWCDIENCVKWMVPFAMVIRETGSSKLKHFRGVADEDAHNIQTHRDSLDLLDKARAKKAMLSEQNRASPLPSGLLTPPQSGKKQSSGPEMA
UniProt Q7Z3E2: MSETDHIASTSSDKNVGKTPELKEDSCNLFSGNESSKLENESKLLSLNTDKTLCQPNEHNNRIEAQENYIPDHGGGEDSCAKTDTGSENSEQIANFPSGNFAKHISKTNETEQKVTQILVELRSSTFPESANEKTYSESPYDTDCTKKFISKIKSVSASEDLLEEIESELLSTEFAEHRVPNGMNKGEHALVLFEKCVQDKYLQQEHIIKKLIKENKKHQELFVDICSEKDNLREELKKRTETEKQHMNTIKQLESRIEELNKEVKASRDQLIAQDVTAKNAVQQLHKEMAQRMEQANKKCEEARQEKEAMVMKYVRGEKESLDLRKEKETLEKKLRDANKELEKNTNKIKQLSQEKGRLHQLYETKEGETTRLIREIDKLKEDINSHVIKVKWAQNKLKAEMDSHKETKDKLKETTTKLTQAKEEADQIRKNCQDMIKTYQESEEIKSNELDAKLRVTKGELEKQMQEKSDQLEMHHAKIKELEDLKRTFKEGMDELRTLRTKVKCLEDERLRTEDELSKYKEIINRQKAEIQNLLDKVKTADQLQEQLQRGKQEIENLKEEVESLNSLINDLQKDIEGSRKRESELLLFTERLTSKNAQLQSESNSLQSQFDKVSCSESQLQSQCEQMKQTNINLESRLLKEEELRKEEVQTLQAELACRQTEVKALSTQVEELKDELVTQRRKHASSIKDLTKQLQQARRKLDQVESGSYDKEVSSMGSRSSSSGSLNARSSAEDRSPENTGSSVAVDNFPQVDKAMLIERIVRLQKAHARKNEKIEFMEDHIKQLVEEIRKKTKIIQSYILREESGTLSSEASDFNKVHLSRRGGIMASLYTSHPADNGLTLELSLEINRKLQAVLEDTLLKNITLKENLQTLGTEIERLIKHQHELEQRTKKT
UniProt Q8TCZ2: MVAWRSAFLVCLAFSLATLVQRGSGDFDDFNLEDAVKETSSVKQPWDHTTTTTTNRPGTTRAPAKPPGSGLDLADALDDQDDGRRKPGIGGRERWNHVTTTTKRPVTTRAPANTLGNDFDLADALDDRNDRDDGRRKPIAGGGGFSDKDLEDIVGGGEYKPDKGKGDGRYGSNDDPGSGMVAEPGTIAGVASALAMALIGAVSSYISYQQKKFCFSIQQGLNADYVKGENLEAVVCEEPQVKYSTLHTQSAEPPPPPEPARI
UniProt Q8ND76: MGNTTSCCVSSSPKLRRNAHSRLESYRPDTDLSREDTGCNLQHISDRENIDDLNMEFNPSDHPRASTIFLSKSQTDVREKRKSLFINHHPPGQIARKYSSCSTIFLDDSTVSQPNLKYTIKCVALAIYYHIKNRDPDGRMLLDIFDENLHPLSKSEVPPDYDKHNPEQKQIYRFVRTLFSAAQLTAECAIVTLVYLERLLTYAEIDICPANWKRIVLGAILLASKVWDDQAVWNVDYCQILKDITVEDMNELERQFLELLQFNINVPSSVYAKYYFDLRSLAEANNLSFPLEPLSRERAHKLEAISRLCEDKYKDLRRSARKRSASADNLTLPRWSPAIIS
UniProt Q5M9N0: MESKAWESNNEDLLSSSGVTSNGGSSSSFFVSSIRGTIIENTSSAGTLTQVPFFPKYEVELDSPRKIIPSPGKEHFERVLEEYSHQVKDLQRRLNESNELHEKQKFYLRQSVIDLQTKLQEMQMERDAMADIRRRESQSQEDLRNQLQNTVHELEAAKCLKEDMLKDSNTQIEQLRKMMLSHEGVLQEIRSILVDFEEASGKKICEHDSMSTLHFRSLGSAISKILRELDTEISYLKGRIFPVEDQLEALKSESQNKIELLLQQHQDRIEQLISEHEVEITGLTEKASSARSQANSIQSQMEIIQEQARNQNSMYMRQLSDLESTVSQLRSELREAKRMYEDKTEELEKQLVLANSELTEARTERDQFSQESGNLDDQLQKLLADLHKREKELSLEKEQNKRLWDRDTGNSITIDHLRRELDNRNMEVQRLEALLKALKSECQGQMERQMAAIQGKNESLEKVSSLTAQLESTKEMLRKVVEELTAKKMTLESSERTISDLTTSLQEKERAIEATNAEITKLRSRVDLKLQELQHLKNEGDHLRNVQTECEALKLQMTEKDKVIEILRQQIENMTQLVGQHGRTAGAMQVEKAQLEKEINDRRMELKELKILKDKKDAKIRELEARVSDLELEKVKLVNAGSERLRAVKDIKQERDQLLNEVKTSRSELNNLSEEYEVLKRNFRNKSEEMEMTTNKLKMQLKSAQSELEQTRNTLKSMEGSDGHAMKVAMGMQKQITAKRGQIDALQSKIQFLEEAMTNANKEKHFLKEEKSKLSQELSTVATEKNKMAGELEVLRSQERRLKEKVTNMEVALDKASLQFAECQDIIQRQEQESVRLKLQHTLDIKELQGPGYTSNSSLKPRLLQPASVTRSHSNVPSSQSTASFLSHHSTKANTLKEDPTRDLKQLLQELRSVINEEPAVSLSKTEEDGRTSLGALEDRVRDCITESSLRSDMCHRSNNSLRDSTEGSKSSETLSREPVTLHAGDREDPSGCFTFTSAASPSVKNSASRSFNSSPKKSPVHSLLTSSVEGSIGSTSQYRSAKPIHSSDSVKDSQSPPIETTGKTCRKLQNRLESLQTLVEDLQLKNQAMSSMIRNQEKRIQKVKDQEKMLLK
UniProt Q8N350: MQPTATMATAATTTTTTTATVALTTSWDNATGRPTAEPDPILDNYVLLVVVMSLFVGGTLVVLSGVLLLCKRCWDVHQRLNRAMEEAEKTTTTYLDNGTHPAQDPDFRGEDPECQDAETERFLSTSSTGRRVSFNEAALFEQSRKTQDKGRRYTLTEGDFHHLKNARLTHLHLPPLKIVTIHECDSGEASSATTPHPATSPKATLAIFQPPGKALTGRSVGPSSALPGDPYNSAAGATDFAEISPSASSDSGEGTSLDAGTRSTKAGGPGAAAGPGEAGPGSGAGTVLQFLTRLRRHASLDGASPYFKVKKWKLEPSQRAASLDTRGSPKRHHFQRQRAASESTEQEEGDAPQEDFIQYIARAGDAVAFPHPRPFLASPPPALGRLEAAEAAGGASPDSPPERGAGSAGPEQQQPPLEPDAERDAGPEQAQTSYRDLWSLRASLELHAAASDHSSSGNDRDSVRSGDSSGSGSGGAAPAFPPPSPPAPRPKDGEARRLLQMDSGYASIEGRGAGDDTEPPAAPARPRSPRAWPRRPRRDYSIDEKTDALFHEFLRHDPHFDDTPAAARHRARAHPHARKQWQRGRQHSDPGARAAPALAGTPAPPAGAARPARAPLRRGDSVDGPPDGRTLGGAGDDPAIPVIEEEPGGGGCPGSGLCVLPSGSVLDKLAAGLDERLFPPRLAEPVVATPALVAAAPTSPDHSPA
UniProt Q8N7R7: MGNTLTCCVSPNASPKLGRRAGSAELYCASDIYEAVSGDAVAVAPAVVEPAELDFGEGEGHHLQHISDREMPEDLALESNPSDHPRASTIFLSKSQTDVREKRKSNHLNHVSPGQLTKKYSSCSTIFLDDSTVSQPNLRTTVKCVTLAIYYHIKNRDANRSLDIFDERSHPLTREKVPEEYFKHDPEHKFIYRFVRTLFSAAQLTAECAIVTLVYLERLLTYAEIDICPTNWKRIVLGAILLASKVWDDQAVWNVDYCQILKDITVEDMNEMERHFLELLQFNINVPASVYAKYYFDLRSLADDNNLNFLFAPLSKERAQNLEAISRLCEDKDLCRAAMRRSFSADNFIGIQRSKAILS
UniProt Q12834, whole entry, looked up: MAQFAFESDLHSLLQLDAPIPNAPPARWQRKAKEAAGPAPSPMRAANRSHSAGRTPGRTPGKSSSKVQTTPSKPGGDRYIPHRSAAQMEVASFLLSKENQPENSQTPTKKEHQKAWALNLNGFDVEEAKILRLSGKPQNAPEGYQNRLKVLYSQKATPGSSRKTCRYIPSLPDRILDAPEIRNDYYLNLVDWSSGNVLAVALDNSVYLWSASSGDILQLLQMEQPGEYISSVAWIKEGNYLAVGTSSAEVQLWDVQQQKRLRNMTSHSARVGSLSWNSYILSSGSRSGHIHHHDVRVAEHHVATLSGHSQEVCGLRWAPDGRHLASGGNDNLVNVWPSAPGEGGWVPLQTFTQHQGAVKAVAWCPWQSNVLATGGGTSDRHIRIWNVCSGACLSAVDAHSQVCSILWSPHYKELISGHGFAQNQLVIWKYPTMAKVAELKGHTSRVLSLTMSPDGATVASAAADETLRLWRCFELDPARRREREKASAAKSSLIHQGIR
UniProt Q07108: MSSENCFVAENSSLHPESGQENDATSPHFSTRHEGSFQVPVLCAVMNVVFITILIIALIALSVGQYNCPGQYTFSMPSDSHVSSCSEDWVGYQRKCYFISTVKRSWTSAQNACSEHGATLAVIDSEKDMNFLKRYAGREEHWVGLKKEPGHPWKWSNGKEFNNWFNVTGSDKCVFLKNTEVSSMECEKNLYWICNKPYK
UniProt P15529: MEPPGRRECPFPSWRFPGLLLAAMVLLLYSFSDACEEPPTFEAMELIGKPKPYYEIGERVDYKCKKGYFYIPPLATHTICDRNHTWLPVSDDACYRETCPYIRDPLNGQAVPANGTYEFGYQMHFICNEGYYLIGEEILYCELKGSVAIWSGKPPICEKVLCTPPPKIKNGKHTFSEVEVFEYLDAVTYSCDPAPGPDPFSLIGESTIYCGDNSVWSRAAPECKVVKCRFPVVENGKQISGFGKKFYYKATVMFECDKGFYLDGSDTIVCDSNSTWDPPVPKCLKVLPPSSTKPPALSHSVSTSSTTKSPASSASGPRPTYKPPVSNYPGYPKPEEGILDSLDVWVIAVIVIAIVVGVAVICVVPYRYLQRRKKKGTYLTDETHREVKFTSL
UniProt Q9BUN5: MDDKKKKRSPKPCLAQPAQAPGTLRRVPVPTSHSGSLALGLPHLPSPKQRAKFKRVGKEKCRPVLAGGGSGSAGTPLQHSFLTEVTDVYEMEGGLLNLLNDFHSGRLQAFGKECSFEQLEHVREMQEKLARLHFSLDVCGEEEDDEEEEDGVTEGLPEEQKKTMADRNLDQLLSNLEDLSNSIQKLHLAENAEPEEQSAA
UniProt P51636: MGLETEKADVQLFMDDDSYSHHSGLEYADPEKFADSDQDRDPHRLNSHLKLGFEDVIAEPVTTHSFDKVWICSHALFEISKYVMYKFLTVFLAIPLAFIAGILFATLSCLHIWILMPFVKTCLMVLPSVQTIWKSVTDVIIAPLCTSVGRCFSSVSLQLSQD
UniProt A2RUB6: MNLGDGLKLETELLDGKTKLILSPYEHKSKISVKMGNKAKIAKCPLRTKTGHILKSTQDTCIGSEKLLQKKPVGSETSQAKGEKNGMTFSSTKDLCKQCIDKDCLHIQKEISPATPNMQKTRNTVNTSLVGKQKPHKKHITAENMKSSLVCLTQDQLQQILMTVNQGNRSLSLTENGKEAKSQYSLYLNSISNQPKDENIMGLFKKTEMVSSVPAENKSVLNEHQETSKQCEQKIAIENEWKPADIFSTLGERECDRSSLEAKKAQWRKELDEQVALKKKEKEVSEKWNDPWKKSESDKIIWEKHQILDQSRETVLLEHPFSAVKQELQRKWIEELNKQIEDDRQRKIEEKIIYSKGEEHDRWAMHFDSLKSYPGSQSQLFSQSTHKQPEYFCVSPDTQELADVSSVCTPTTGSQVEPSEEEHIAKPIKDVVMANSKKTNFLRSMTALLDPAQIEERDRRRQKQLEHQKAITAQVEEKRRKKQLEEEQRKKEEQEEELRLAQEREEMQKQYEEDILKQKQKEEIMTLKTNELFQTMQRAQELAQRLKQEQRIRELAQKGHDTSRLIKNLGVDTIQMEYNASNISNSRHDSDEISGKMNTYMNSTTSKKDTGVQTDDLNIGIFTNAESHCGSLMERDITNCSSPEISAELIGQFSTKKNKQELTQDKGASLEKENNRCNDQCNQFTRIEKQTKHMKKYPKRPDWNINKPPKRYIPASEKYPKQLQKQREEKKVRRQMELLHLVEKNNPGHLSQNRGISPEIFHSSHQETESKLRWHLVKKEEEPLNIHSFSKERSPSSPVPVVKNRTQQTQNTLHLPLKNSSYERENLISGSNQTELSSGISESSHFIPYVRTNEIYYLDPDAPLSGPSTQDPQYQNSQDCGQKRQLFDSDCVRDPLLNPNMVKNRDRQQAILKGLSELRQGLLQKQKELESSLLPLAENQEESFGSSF

This is one part of the list.

Compound in one experiment: CN(CCOC1=CC=C(C=C1)C[C@H]2C(=O)NC(=O)S2)C3=CC=CC=N3 (racemic) [rosiglitazone]
As to the kind of experiment: log2 fold change, soluble protein after heating vs DMSO (PISA); higher = thermal stabilisation; K562 cells, 10 uM, 30 min; active = over 0.2 and 3.5 SD of the protein, either way, in both replicates (recomputed). Put shortly:
(§1)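 Thermal stability values are relative to control samples and come from duplicates. They are expressed as log2 fold changes. For measurement, K562 cells (2×10^6 cells/mL) received 10 μM compound for 30 min, and aliquots were heated for 3 min over 48°C-58°C, pooled, and extracted at 4°C in PBS with 0.5% NP-40. Soluble protein, the supernatant after 21,000xg for 90 min, was quantified by TMTpro 16plex LC-MS/MS with equalised channel sums.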
Regarding CCNE1 (UniProt P24864), the log2 fold change is inactive: -0.176. For CCDC186 (UniProt Q7Z3E2), the log2 fold change is inactive: 0.112. Still for that read-out and setting: the value for CD99L2 isoform 5 (UniProt Q8TCZ2) was inactive: 0.017; that for CD2BP2 (UniProt O95400) was inactive: -0.111; that for CBFA2T2 isoform 4 (UniProt O43439) was inactive: -0.306. Consider CCNY (UniProt Q8ND76), for which the log2 fold change is inactive: 0.03. Take CD276 (UniProt Q5ZPR3): the log2 fold change is inactive: 0.238. Still for that read-out and setting: the value for CCDC158 (UniProt Q5M9N0) was inactive: -0.03. CBARP (UniProt Q8N350): the log2 fold change is inactive: -0.004.

CDC37 (UniProt K7EKQ2): the log2 fold change is inactive: -0.167. The same measure, in the same setting: to CD82 (UniProt P27701) belongs inactive: -0.057; to CCNYL1 (UniProt Q8N7R7), inactive: -0.04. On the same count and under the same terms, to CDC25A (UniProt P30304) belongs inactive: -0.008.

Take CBFB (UniProt Q13951): the log2 fold change is inactive: 0.03. Same read-out and setting: to CCDC71L isoform 2 (UniProt Q8N9Z2) belongs inactive: 0.076; to CDC20 (UniProt Q12834), inactive: 0.02; to CD69 (UniProt Q07108), inactive: -0.049.

Take CD46 (UniProt P15529): the log2 fold change is inactive: -0.08. Same read-out and setting: to CBX3 (UniProt B8ZZ43) belongs inactive: -0.184; to CCDC28B (UniProt Q9BUN5), inactive: -0.067.

Compound in the next experiment: CN1C2=C(C3=C1C(=O)N(N=C3)CC4=CC(=CC=C4)N)SC(=C2)S(=O)C
Described as above. Put shortly:
as §1
For CCNE1 (UniProt P24864), the log2 fold change is inactive: -0.02. For CCNDBP1 (UniProt O95273), the log2 fold change is inactive: 0.013.

As for CBX8 (UniProt Q9HC52), the log2 fold change is inactive: 0.282. On the same count and under the same terms, the value for CCDC186 (UniProt Q7Z3E2) was inactive: 0.087; that for CD109 (UniProt Q6YHK3) was inactive: 0.171. In the case of CD99L2 isoform 5 (UniProt Q8TCZ2), the log2 fold change was inactive: 0.084. The same measure, in the same setting: to CD2BP2 (UniProt O95400) belongs inactive: -0.076; to CDC25C (UniProt P30307), inactive: 0.07; to CD44 (UniProt P16070), inactive: -0.053. Take CCNY (UniProt Q8ND76): the log2 fold change was inactive: -0.014. CCNE2 (UniProt O96020): the log2 fold change is inactive: 0.29. CCDC158 (UniProt Q5M9N0): the log2 fold change is inactive: 0.024. Still for that read-out and setting: to CBARP (UniProt Q8N350) belongs inactive: 0.054; to CD84 (UniProt Q9UIB8), inactive: -0.077.

Regarding CCNYL1 (UniProt Q8N7R7), the log2 fold change is inactive: -0.132. In the case of CCNC (UniProt P24863), the log2 fold change is inactive: 0.032. Same read-out and setting: the value for CBFB (UniProt Q13951) was inactive: 0. On the same count and under the same terms, to CDC20 (UniProt Q12834) belongs inactive: -0.055. Same read-out and setting: to CD9 (UniProt P21926) belongs inactive: -0.292; to CASK (UniProt O14936), inactive: 0.014; to CD46 (UniProt P15529), inactive: -0.062. Take CCT6B isoform 3 (UniProt Q92526): the log2 fold change is inactive: 0.153.

Consider CASP7 isoform 3 (UniProt P55210), for which the log2 fold change is inactive: 0.032. Still for that read-out and setting: the value for CD37 (UniProt P11049) was inactive: 0.024. On the same count and under the same terms, to CBX3 (UniProt B8ZZ43) belongs inactive: 0.158; to CAV2 (UniProt P51636), inactive: 0.01.

Compound in a further experiment: CN1CCC(CNc2ccc3ncc(-c4cccc(OC(F)(F)F)c4)n3n2)CC1
The experiment is described as above. Put shortly:
as §1
Take CCNE1 (UniProt P24864): the log2 fold change was inactive: 0.166. Same read-out and setting: to CCNDBP1 (UniProt O95273) belongs inactive: -0.048; to CCDC186 (UniProt Q7Z3E2), inactive: -0.26.

CD109 (UniProt Q6YHK3): the log2 fold change was inactive: 0.151.

CD99L2 isoform 5 (UniProt Q8TCZ2): the log2 fold change is inactive: 0.073. Still for that read-out and setting: the value for CCDC66 (UniProt A2RUB6) was inactive: 0.038. On the same count and under the same terms, to CCDC187, A0A1W2PQX5 belongs inactive: -0.029.

In the case of CBFA2T2 isoform 4 (UniProt O43439), the log2 fold change is inactive: 0.103. The same measure, in the same setting: the value for CCNY (UniProt Q8ND76) was inactive: 0.14; that for CD276 (UniProt Q5ZPR3) was inactive: 0.071. The same measure, in the same setting: to CCDC158 (UniProt Q5M9N0) belongs inactive: 0.074. Turning to CBARP (UniProt Q8N350), the log2 fold change was inactive: -0.06. On the same count and under the same terms, the value for CD82 (UniProt P27701) was inactive: 0.131. For CCNYL1 (UniProt Q8N7R7), the log2 fold change is inactive: 0.121.

Consider CCNC (UniProt P24863), for which the log2 fold change was active: 0.4.

Regarding CDC20 (UniProt Q12834), the log2 fold change is inactive: -0.079. In the case of CD69 (UniProt Q07108), the log2 fold change is inactive: 0.097. With CD9 (UniProt P21926), the log2 fold change was inactive: -0.051. Same read-out and setting: to CASP7 isoform 3 (UniProt P55210) belongs inactive: -0.697; to CD37 (UniProt P11049), inactive: 0.167; to CAV2 (UniProt P51636), inactive: 0.074.

For CCDC28B (UniProt Q9BUN5), the log2 fold change was inactive: 0.005.
